# Source: PubChem BioAssay AID651640 (Broad Institute, 2012)
# Several values for one entry are separate records, joined by “and”; a condition that tells them apart may be missing. Identical values can stand only once. The whole screen tested about 350,000 compounds, of which about 6,000 (1.7%) were called active. This list was built around the results that the source calls inconclusive (neither active nor inactive); the mix of calls is not that of the screen. Rule as the data show it: active = CPE inhibition above about 20% (passing the limit was not always enough); inconclusive = no clear call, values can overlap the other calls; tested in BHK-21 cells. More than one record can exist for a structure, and the calls need not agree.
# Assay: protection of cells from dengue 2 killing – plate reader, single concentration, primary screen (AID 651640);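 also: 0% = median of neutral control wells and 100% = median of positive control wells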
# Details: DENV2-infected cells, cytopathic effect rescue, at 9.99 µM, hits give high values
row,Structure (SMILES),CPE inhibition
1,O=C(Nc1ccncc1)c1ccc2c(c1)S(=O)(=O)c1ccccc1C2=O,active: 53%
2,Nc1nc(NC(=O)/C=C\C(=O)O)nn1-c1ccccc1,inactive: -2.87%
3,CCCN(C)C1CN(Cc2cn(Cc3cccc(C(F)(F)F)c3)nn2)S(=O)(=O)C1 (stereo unspecified),inconclusive: 42.1%
4,CN1CCCCN2[C@H](C1)[C@@H](c1ccc(-c3cccnc3)cc1)[C@@H]2CO,inconclusive: 53.6%
5,Cc1ccccc1-c1ccc([C@@H]2[C@@H](CO)N3C(=O)CN(C(=O)Nc4ccc(F)cc4)C[C@@H]23)cc1,inactive: 3.87%
6,COc1ccccc1-c1ccc([C@@H]2[C@@H](CO)N3CCCCN(S(=O)(=O)c4cn(C)cn4)C[C@@H]23)cc1,inconclusive: 30.9%
7,COCC(=O)N1CC2(C1)CN(Cc1ccccc1Cl)[C@H](CO)c1c2c2ccc(OC)cc2n1C,inactive: -7.88%
8,COc1ccc(OC)c(S(=O)(=O)N2CCN(c3c(C)cccc3C)CC2)c1,active: 26.9%
9,C/C=C/c1ccccc1[C@H]1[C@@H](CO)N(C(=O)NC2CCCC2)[C@H]1C#N,inactive: 2.03%
10,COc1ccc(CN(C)C[C@@H]2Oc3ccc(NS(=O)(=O)c4cccs4)cc3C(=O)N([C@@H](C)CO)C[C@H]2C)cc1,active: 31.6%
11,CC1(c2ccccc2Br)NC(=O)N(CC(=O)N2CCc3ccccc3C2)C1=O (stereo unspecified),inconclusive: 39.9%
12,COc1cccc(NC(=O)C[C@H]2CC[C@H]3[C@@H](COc4ccc(NC(=O)C5CCOCC5)cc4C(=O)N3C)O2)c1,inconclusive: 29.4%
13,O=C(NCCCN1CCCC1=O)c1ccc(NS(=O)(=O)c2ccc(F)cc2)cc1,inconclusive: 36.1%
14,CCCCNC(=O)C[C@@H]1C[C@@]2(C(=O)OC)CCCCC=C2N(CCC2=CCCCC2)C1=O,active: 80.4%
15,CC(C)CC#Cc1ccc2c(c1)O[C@H](CN(C)S(=O)(=O)c1cccc(F)c1)[C@H](C)CN([C@H](C)CO)S2(=O)=O,active: 22.4%
16,CC(=O)NC1=NN(C(C)=O)C(C)(c2ccc(C)cc2)S1 (stereo unspecified),inconclusive: 47.2%
17,COc1ccc(C2CC(=O)C(c3ccc(C(F)(F)F)cc3)=CN2Cc2ccccc2)cc1 (stereo unspecified),inconclusive: 51.8%
18,CC(C)Cc1cc(C(=O)Nc2ccccc2)c2ccccc2n1,inconclusive: 20.9%
19,Cc1ccccc1NS(=O)(=O)c1cccc2nsnc12,inconclusive: 32%
20,C#CCOCCOCCOCCNc1nc(OC)nc(N2CCN(C(=O)[C@H](CCC(=O)O)n3cc(C(N)CO)nn3)CC2)n1 (stereo partly specified),active: 23.1%
21,Cc1ccccc1-c1ccc([C@H]2[C@H](CO)N3CCCCN(C(=O)c4cccnc4)C[C@@H]23)cc1,inconclusive: 38.6%
22,COc1ccc(NC(=O)COc2cccc3c2CCN(Cc2cccnc2)C3=O)cc1,inconclusive: 52.7%
23,CCN1C(=O)[C@H]2[C@@H](c3ccc(C)cc3)N3C(=O)N(c4ccc(C(F)(F)F)cc4)C(=O)[C@@]3(CC(C)C)[C@H]2C1=O,inconclusive: 51.7%
24,COc1ccc(S(=O)(=O)Nc2ccc3c(c2)C(=O)N([C@H](C)CO)C[C@@H](C)[C@H](CN(C)CC2CC2)O3)cc1,inactive: 8.88%

row,Structure (SMILES),CPE inhibition
1,CCCNC(=O)C[C@@H]1C[C@H]2c3cc(NC(=O)CN(C)C)ccc3O[C@H]2[C@@H](CO)O1,active: 64.6%
2,CCOC(=O)c1cc(-c2ccc(F)cc2)n(CC(=O)NC(C)CC)c1C (stereo unspecified),inactive: 0.537%
3,Cn1c(C(=O)O)ccc1S(=O)(=O)N(Cc1ccccc1)Cc1ccccc1,inconclusive: 21.6%
4,O=C(NCC[C@@H]1CC[C@@H](NS(=O)(=O)c2ccc(Cl)cc2)[C@H](CO)O1)Nc1ccc(F)cc1,inconclusive: 28.6%
5,C=CCC(NC(=O)c1ccc(C#N)cc1)C(=O)NCCC (stereo unspecified),active: 48.8%
6,O=C([C@@H]1[C@@H](CO)[C@@H]2Cn3c(ccc(C4=CCCC4)c3=O)[C@H]1N2C(=O)c1cccnc1)N1CCOCC1,inconclusive: 36.2%
7,C[C@@H]1CN([C@H](C)CO)C(=O)c2cccc(NC(=O)Nc3ccccc3)c2O[C@H]1CN(C)C(=O)Nc1ccccc1,active: 52.3%
8,O=C(N/N=C/c1cc(Br)c(Br)s1)c1ccncc1,inconclusive: 26.2%
9,COc1ccc2c3c([nH]c2c1)[C@H](CO)N(C(=O)C1CCOCC1)CC31CCN(C(=O)NC(C)C)CC1,inactive: -2.57%
10,C[C@@H]1CN([C@@H](C)CO)C(=O)c2cc(NC(=O)CCC(F)(F)F)ccc2O[C@@H]1CN(C)CC1CCCCC1,active: 22.1%
11,O=C(c1ccccc1)C(O)C(c1ccccc1)N1CCOCC1 (stereo unspecified),inconclusive: 35.9%
12,N/C(=N\OCc1ccc([N+](=O)[O-])cc1)c1ccncc1,inconclusive: 21%
13,COc1ccc2c3c([nH]c2c1)[C@H](CO)N(C(=O)Nc1ccc(F)cc1)CC31CCN(C(=O)Nc2c(C)noc2C)CC1,inactive: -3.75%
14,Cc1ccc(C(=O)O)cc1NC(=O)CCc1c(C)noc1C,inconclusive: 27.5%
15,COc1ccc(NC(=O)Cn2nnc(C(=O)NCc3cccs3)c2N)c(OC)c1,inconclusive: 41.7%
16,Cc1noc(C)c1NC(=O)Nc1ccc2c(c1)C(=O)N(C)[C@@H]1CC[C@H](CC(=O)N[C@@H]3CCN(Cc4ccccc4)C3)O[C@H]1CO2,inactive: -0.868%
17,COc1ccc([C@H]2N[C@]3(CCCN(Cc4ccc(Br)cc4)C3=O)[C@H]3C(=O)N(Cc4ccccc4)C(=O)[C@@H]23)cc1,inconclusive: 42.8%
18,C[C@@H]1CN([C@H](C)CO)C(=O)c2cc(C#C[C@@H](C)O)cnc2O[C@H]1CN(C)C(=O)c1ccc(F)cc1,active: 43.3%
19,CCCC#Cc1ccc([C@@H]2[C@@H](CO)N3C(=O)CN(C(=O)Nc4ccc(F)cc4)C[C@H]23)cc1,active: 36.1%
20,CCC(=O)N1CC(=O)N2[C@H](CO)[C@@H](c3ccc(C#Cc4cccnc4)cc3)[C@@H]2C1,inconclusive: 20.5%
21,O=C(COc1ccc(Cl)cc1)Nc1nc(-c2ccncc2)cs1,inconclusive: 111%
22,O=C(O)C1CCCCC1C(=O)Nc1ccc(OCc2ccccc2)cc1 (stereo unspecified),inconclusive: 26.8%
23,CN(C)C(=O)C[C@@H]1CC[C@@H]2[C@H](COC[C@@H](O)CN2C(=O)C2CC2)O1,inconclusive: 65.1%
24,CC(C)NC(=O)N(C)C[C@H]1Oc2c(NS(C)(=O)=O)cccc2C(=O)N([C@H](C)CO)C[C@@H]1C,inactive: 8.46% and inactive: -1.07%

row,Structure (SMILES),CPE inhibition
1,COc1ccc2c3c(n(C)c2c1)[C@H](CO)NCC31CCN(CC2CC2)CC1,inactive: 9.25%
2,C[C@@H]1CN([C@@H](C)CO)C(=O)c2cc(N(C)C)ccc2O[C@H]1CN(C)C(=O)Nc1ccc(F)cc1,active: 35%
3,CCC(=O)N[C@@H]1CC[C@H](CC(=O)NCC2CCCCC2)O[C@H]1CO,inconclusive: 21.2%
4,CCCC#Cc1ccc([C@H]2[C@@H](CO)N3C(=O)CN(C(=O)Nc4ccc(F)cc4)C[C@H]23)cc1,inactive: -5.76%
5,CN1C(=O)c2cc(NC(=O)NCc3ccccc3)ccc2OC[C@@H]2O[C@H](CC(=O)NCC3CCCCC3)CC[C@H]21,inconclusive: 42.2%
6,O=C(N/N=C/c1cccc([N+](=O)[O-])c1)c1nc2ccccc2c(=O)[nH]1,inconclusive: 21.5%
7,COc1ccc(OC)c(/C=N/NC(=O)C(=O)N2CCCC2)c1,inconclusive: 20.6%
8,Cc1noc(C)c1NC(=O)Nc1ccc2c(c1)C(=O)N([C@H](C)CO)C[C@@H](C)[C@@H](CN(C)Cc1ccc(C(=O)O)cc1)OCCCC[C@@H](C)O2,inconclusive: 35.5%
9,Cc1cccc(S(=O)(=O)N[C@@H]2CC[C@@H](CCNC(=O)c3cnccn3)O[C@@H]2CO)c1,active: 30.7%
10,C[C@@H]1CN([C@@H](C)CO)C(=O)c2cc(C3=CCCC3)cnc2O[C@H]1CN(C)C(=O)C1CCCCC1,inconclusive: 68.8%
11,COc1ccc(OC)c(CNS(=O)(=O)c2c(C)nc3scc(C)n3c2=O)c1,inconclusive: 23.8%
12,COc1cc(CNC(=O)CCCC(=O)c2ccccc2)cc(OC)c1OC,inconclusive: 36.2%
13,COc1ccc(-c2ccc(CN3C(C(C)C)C(=O)N(Cc4cn(CCC5OCCO5)nn4)CCS3(=O)=O)cc2)cc1OC (stereo unspecified),inactive: -2.16%
14,COc1ccc(NC(=O)/C=C/c2ccc(OC(F)F)cc2)cn1,inconclusive: 26.2%
15,CO[C@@H]1CN(C)C(=O)c2ccc(NS(=O)(=O)c3ccccc3C)cc2OC[C@@H](C)NC[C@H]1C,inactive: 0.726%
16,COc1ccc(C#Cc2cnc3c(c2)C(=O)N([C@@H](C)CO)C[C@@H](C)[C@@H](CN(C)C(=O)c2ccccc2F)O3)cc1,inconclusive: 61.1%
17,C[C@]1(C(=O)NCCc2c[nH]c3ccccc23)C=C[C@@H](Cc2ccccc2)N1C(=O)c1ccccc1,active: 40.2%
18,COc1ccc(OC)c(S(=O)(=O)N2CCC(C(=O)NC3CCCCCC3)CC2)c1,inconclusive: 38.8%
19,Brc1ccc2c(c1)C(C1=NCCN1)c1ccccc1CS2 (stereo unspecified),inconclusive: 36.7%
20,COc1cccc(NC(=O)N(C)C[C@@H]2OCc3cnnn3CCCC(=O)N([C@@H](C)CO)C[C@@H]2C)c1,active: 79.3%
21,CCNC(=O)Nc1ccc2c(c1)C(=O)N(C)[C@@H]1CC[C@H](CC(=O)NCc3cccc(F)c3)O[C@H]1CO2,inconclusive: 21.3%
22,O=C(NC[C@H]1[C@H](c2ccccc2)[C@H](CO)N1Cc1ccccn1)C1CCCC1,inconclusive: 45.7%
23,CCc1nc2c(OCc3ccc(Cl)cc3)cccn2c1N(C=O)Cc1ccc(OC)cc1,inconclusive: 22.9%
